{"source": "PubChem BioAssay AID651582", "about": "(Sanford-Burnham Center for Chemical Genomics, 2012)", "note": "The list shows a part of the results. Some salts or complexes appear as unconnected parts, following the source record."}
{"test": "TAG lipid buildup reduction in H9c2 cells – cell-based, uHTS, fluorescence, primary screen (AID 651582)", "conditions": "Nile Red lipid (TAG) fluorescence, DAPI nuclei count viability, at 12.5 µM, cells loaded with 200 µM oleic acid", "units": {"DAPI activity (viability loss)": "%"}}
{"smiles": "O=[N+]([O-])c1cc([N+](=O)[O-])c(Nc2ccc(Cl)cc2)c([N+](=O)[O-])c1", "DAPI activity (viability loss)": -17.9}
{"smiles": "CCOc1ccc(C2=NCC(CBr)S2)cc1", "note": "(centres undefined)", "DAPI activity (viability loss)": 4.57}
{"smiles": "CC(C)(C)C(=O)NC(Sc1ccccc1)C(Cl)(Cl)Cl", "note": "(centres undefined)", "DAPI activity (viability loss)": 3.42}
{"smiles": "CC(C)c1ccc(OP(C)(=O)Nc2ccc(SC(F)(F)F)cc2)cc1", "note": "(centres undefined)", "DAPI activity (viability loss)": 2.17}
{"smiles": "CCc1cc(O)c([N+](=O)[O-])c(C)c1[N+](=O)[O-]", "DAPI activity (viability loss)": 5.79}
{"smiles": "Cc1ccccc1CN(C)C(=O)COC(=O)C(O)(c1ccccc1)c1ccccc1", "DAPI activity (viability loss)": -2.87}
{"smiles": "C[C@@H]1C=CCP(=O)(Oc2ccccc2)O1", "note": "(some centres undefined)", "DAPI activity (viability loss)": 2.94}
{"smiles": "N#C/C(=C\\c1ccc(N(CCBr)CCBr)cc1)C(N)=O", "DAPI activity (viability loss)": -15.8}
{"smiles": "COC(=O)C1(C)COP(=O)(NCc2ccccc2)OC1", "note": "(centres undefined)", "DAPI activity (viability loss)": -4.34}
{"smiles": "O=C(OC1CN2CCC1CC2)c1ccc([N+](=O)[O-])cc1", "note": "(centres undefined)", "DAPI activity (viability loss)": -0.106}
{"smiles": "COc1ccc2c(c1O)-c1c(O)c(OC)cc3c1[C@H](C2)[N+](C)(C)CC3.O=[N+]([O-])c1cc([N+](=O)[O-])c([O-])c([N+](=O)[O-])c1[O-]", "DAPI activity (viability loss)": 7.38}
{"smiles": "CC(=O)Nc1ccc([As](=O)(O)O)c(O)c1", "DAPI activity (viability loss)": 3.82}
{"smiles": "CC(=O)Nc1ccc(Oc2c([N+](=O)[O-])cc([N+](=O)[O-])cc2[N+](=O)[O-])cc1", "DAPI activity (viability loss)": 12.1}
{"smiles": "O=P(Nc1nccs1)(c1ccccc1)c1ccccc1", "DAPI activity (viability loss)": -7.91}
{"smiles": "CP(=O)(Nc1ccc(SC(F)(F)F)cc1)Oc1ccc(F)cc1", "note": "(centres undefined)", "DAPI activity (viability loss)": 6.7}
{"smiles": "c1nnnn1CCn1cnnn1", "DAPI activity (viability loss)": 4.3}
{"smiles": "CCOP(C)(=S)SCC(=O)NC(C)(CC)C(=O)O", "note": "(centres undefined)", "DAPI activity (viability loss)": 1.66}
{"smiles": "CP(=O)(Nc1ccc2c(c1)OCCO2)Oc1ccccc1", "note": "(centres undefined)", "DAPI activity (viability loss)": 3.15}
{"smiles": "Cc1ccccc1NP(C)(=O)Nc1ccccc1C", "DAPI activity (viability loss)": -2.59}
{"smiles": "COc1ccc(OP(C)(=O)Nc2cccc(Br)c2)cc1", "note": "(centres undefined)", "DAPI activity (viability loss)": -13.6}
{"smiles": "COc1ccc(N)c([N+](=O)[O-])c1[N+](=O)[O-]", "DAPI activity (viability loss)": -3.26}
{"smiles": "COc1ccc(NP(C)(=O)Oc2ccccc2OC)cc1", "note": "(centres undefined)", "DAPI activity (viability loss)": -9.95}
{"smiles": "O=P(Nc1nc2ccccc2s1)(c1ccccc1)c1ccccc1", "DAPI activity (viability loss)": -5.85}
{"smiles": "C[C@H]1OP(=O)(Oc2ccccc2)[C@H](O)[C@H](O)[C@H]1N=[N+]=[N-]", "note": "(some centres undefined)", "DAPI activity (viability loss)": 2.77}
{"smiles": "O=[As](O)(c1ccccc1)c1ccc(O)cc1", "DAPI activity (viability loss)": -5.3}
{"smiles": "O=[N+]([O-])c1cc([N+](=O)[O-])c(NCC2CCS(=O)(=O)C2)c([N+](=O)[O-])c1", "note": "(centres undefined)", "DAPI activity (viability loss)": -2.33}
{"smiles": "Cc1cc(-c2cccc3ccccc23)c(C)cn1.O=[N+]([O-])c1cc([N+](=O)[O-])c(O)c([N+](=O)[O-])c1", "DAPI activity (viability loss)": 5.09}
{"smiles": "O=[N+]([O-])c1ccc(O)c(/C=N/Nc2ccc([N+](=O)[O-])cc2[N+](=O)[O-])c1", "DAPI activity (viability loss)": -3.51}
{"smiles": "O=[N+]([O-])c1ncn(CCn2cnc([N+](=O)[O-])n2)n1", "DAPI activity (viability loss)": 10.9}
{"smiles": "O=C(OC1CN2CCC1CC2)c1cccc(Cl)c1", "note": "(centres undefined)", "DAPI activity (viability loss)": 10.6}
{"smiles": "Cc1c(C(c2ccc3c(c2)OCO3)c2c(C)n(C)n(-c3ccccc3)c2=O)c(=O)n(-c2ccccc2)n1C.O=[N+]([O-])c1cc([N+](=O)[O-])c(O)c([N+](=O)[O-])c1", "DAPI activity (viability loss)": 9.94}
{"smiles": "Nc1ccc([As](=O)(O)c2ccc([N+](=O)[O-])cc2)cc1", "DAPI activity (viability loss)": -2.12}
{"smiles": "O=P1(N(CCCl)CCCl)OCCCS1", "note": "(centres undefined)", "DAPI activity (viability loss)": 5.3}
{"smiles": "O=[N+]([O-])c1ncn(CCn2ncnc2[N+](=O)[O-])n1", "DAPI activity (viability loss)": -9.97}
{"smiles": "CC(C)(C)C(=O)NC(Sc1ccncn1)C(Cl)(Cl)Cl", "note": "(centres undefined)", "DAPI activity (viability loss)": -1.54}
{"smiles": "O=[N+]([O-])c1cccc(NC2=NCC(CBr)S2)c1", "note": "(centres undefined)", "DAPI activity (viability loss)": -0.978}
{"smiles": "COC(=O)C1(C)COP(=O)(Nc2ccccc2)OC1", "note": "(centres undefined)", "DAPI activity (viability loss)": -2.71}
{"smiles": "CCN(CC)CC(O)COC(=O)C(O)(c1ccccc1)C1CCCCC1", "note": "(centres undefined)", "DAPI activity (viability loss)": 1.14}
{"smiles": "COc1ccc(C2=NCC(CBr)S2)cc1", "note": "(centres undefined)", "DAPI activity (viability loss)": 1.49}
{"smiles": "Cc1ccc(NP(=O)(Oc2ccccc2)Oc2ccccc2)nc1", "DAPI activity (viability loss)": 7.66}
{"smiles": "CP(=O)(Oc1ccccc1)N1CCOC1=O", "note": "(centres undefined)", "DAPI activity (viability loss)": 4.52}
{"smiles": "O=[N+]([O-])c1cc([N+](=O)[O-])c(CCNc2ccccc2)c([N+](=O)[O-])c1", "DAPI activity (viability loss)": 2.7}
{"smiles": "CCc1ccc(OP(C)(=O)Nc2cccnc2)cc1", "note": "(centres undefined)", "DAPI activity (viability loss)": -2.09}
{"smiles": "COc1ccccc1OP(C)(=O)Nc1c(C)n(C)n(-c2ccccc2)c1=O", "note": "(centres undefined)", "DAPI activity (viability loss)": -4.49}
{"smiles": "O=[N+]([O-])c1cccc2n[nH]nc12", "DAPI activity (viability loss)": -2.64}
{"smiles": "O=C(OCCCN1CCCC1)C(O)(c1ccccc1)C1CCCCC1", "note": "(centres undefined)", "DAPI activity (viability loss)": 8.87}
{"smiles": "CCN(/C(=N/P(=O)(N1CCOCC1)N1CCOCC1)N1CCOCC1)c1ccc(OC)cc1", "DAPI activity (viability loss)": -6.32}
{"smiles": "Nc1ccc([As](=O)(O)c2ccc(N)cc2)cc1", "DAPI activity (viability loss)": -0.605}
{"smiles": "COc1ccccc1OP(C)(=O)Nc1ccccc1Br", "note": "(centres undefined)", "DAPI activity (viability loss)": -2.17}
{"smiles": "C[N+]1=C2C=CC=CC=C2SC12C([N+](=O)[O-])=CC([N+](=O)[O-])=C[C-]2[N+](=O)[O-]", "note": "(centres undefined)", "DAPI activity (viability loss)": -52.5}
{"smiles": "c1cc(-c2nn[nH]n2)ccc1-c1nn[nH]n1", "DAPI activity (viability loss)": 0.431}
{"smiles": "CC1CCN(C(=O)Oc2c(Cl)cc(Cl)c3cccnc23)CC1", "DAPI activity (viability loss)": 5.98}
{"smiles": "CN(C)C(=O)c1c([N+](=O)[O-])cc([N+](=O)[O-])cc1[N+](=O)[O-]", "DAPI activity (viability loss)": -15}
{"smiles": "CC(C)=N/N=C(\\N)N[N+](=O)[O-]", "DAPI activity (viability loss)": -1.97}
{"smiles": "CC(C)c1nc(Nc2ccccc2)n(P(=O)(N(C)C)N(C)C)n1", "DAPI activity (viability loss)": -2.23}
{"smiles": "COc1ccccc1OP(C)(=O)Nc1ccc(Br)cc1", "note": "(centres undefined)", "DAPI activity (viability loss)": 0.672}
{"smiles": "CN(C(=O)Cc1ccc(Cl)c(Cl)c1)[C@H]1CCCC[C@H]1N1CCCC1", "DAPI activity (viability loss)": 0.265}
{"smiles": "Cc1ccc(N/C(=N/P(=O)(N2CCOCC2)N2CCOCC2)N2CCOCC2)cc1", "DAPI activity (viability loss)": -2.19}
{"smiles": "NC(=O)c1cc([N+](=O)[O-])cc([N+](=O)[O-])c1N", "DAPI activity (viability loss)": -12.6}
{"smiles": "Clc1ccc(Cl)c(NC2=NCC(CBr)S2)c1", "note": "(centres undefined)", "DAPI activity (viability loss)": 6.79}
{"smiles": "CN1CCCC(OC(=O)C(c2ccccc2)c2ccccc2)C1", "note": "(centres undefined)", "DAPI activity (viability loss)": 5.45}
{"smiles": "COc1ccccc1OP(=O)(Nc1ccc(C)cn1)Oc1ccccc1OC", "DAPI activity (viability loss)": -4.85}
{"smiles": "Cc1ccc(OP(=O)(Nc2nccs2)Oc2ccc(C)cc2)cc1", "DAPI activity (viability loss)": -2.49}
{"smiles": "O=[N+]([O-])c1cc([N+](=O)[O-])c(Nc2ccccn2)c([N+](=O)[O-])c1", "DAPI activity (viability loss)": 11.4}
{"smiles": "Cc1c(NP(C)(=O)Oc2ccc(C(C)C)cc2)c(=O)n(-c2ccccc2)n1C", "note": "(centres undefined)", "DAPI activity (viability loss)": 8.57}
{"smiles": "Nc1cc(N)c2nonc2c1[N+](=O)[O-]", "DAPI activity (viability loss)": 4.89}
{"smiles": "CCc1ccc(OP(C)(=O)O)cc1", "DAPI activity (viability loss)": 2.09}
{"smiles": "CP(=O)(Nc1ccccn1)Oc1ccccc1", "note": "(centres undefined)", "DAPI activity (viability loss)": 8.21}
{"smiles": "COc1ccccc1OP(C)(=O)Nc1ccc(C)cc1C", "note": "(centres undefined)", "DAPI activity (viability loss)": 14.9}
{"smiles": "O=C1C(O)=C([N+](=O)[O-])C(=O)C(O)=C1[N+](=O)[O-]", "DAPI activity (viability loss)": 8.31}
{"smiles": "Cc1cc(C)cc(OP(C)(=O)Nc2cccc(C(F)(F)F)c2)c1", "note": "(centres undefined)", "DAPI activity (viability loss)": -5.64}
{"smiles": "CN(C)P(=O)(N(C)C)n1c(Nc2ccccc2)nnc1-c1ccccc1", "DAPI activity (viability loss)": 5.51}
{"smiles": "O=P(Nc1nc2ccc(Cl)cc2s1)(c1ccccc1)c1ccccc1", "DAPI activity (viability loss)": -2.4}
{"smiles": "CCCC1OP(N)(=O)OCC1CC", "note": "(centres undefined)", "DAPI activity (viability loss)": 3.63}
{"smiles": "Cc1ccc(NP(=O)(Oc2ccccc2F)Oc2ccccc2F)nc1", "DAPI activity (viability loss)": -5.39}
{"smiles": "CN(C(=O)Cc1ccc(Cl)c(Cl)c1)[C@H]1CCCC[C@@H]1N1CCCC1", "DAPI activity (viability loss)": -7.3}
{"smiles": "CP(=O)(OCCOc1ccccc1)OCCOc1ccccc1", "DAPI activity (viability loss)": 11.4}
{"smiles": "CP(=O)(Nc1ccc(Cl)cc1Cl)Oc1ccccc1", "note": "(centres undefined)", "DAPI activity (viability loss)": -14.2}
{"smiles": "CCCCCCCCCCCCCCCC1C[N+](C)(C)CCOP(C)(=O)O1", "note": "(centres undefined)", "DAPI activity (viability loss)": 24.3}
